PubChem BioAssay AID1259308 | NCATS | 2017
The whole screen tested about 59,000 reagents; this is an unselected part. About 1,510 of them (2.6%) were called active. 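Calls use total luciferase alone and ignore viability, so some active siRNAs may act by altering cell number.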 Reagents against one gene are numbered here. Further read-outs or replicates are left out here. Reagent sequences are not shown.

Purpose: 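Candidate targets for better recombinant protein yield in mammalian cells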 (primary screen)
Cells: human HEK293 embryonic kidney cells stably expressing firefly luciferase (HEK-CMV-Luc2-Hygro)
Reagents: single siRNA against human genes, 0.8 pmol siRNA per well
Duration: 72 h
Measurement: 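Reporter luminescence and viable-cell signal on separate replicate plates, given as percent of non-targeting control and median/MAD z-scores, plus per-cell luciferase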
Direction: total luciferase, z-score: higher = more reporter protein produced
Active means: 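An siRNA counts as active if its total luciferase robust z-score exceeds 3; genes with two or more such siRNAs out of three were retested with fresh siRNAs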
Meaning of the calls: active = raised luciferase; inactive = no rise

Gene | siRNA no. | total luciferase, z-score | call
KCNAB2 | 1 | -0.0621 | inactive
KCNAB2 | 2 | 2.01 | inactive
KCNAB2 | 3 | -0.224 | inactive
SCNM1 (sodium channel modifier 1) | 1 | -2.23 | inactive
SCNM1 (sodium channel modifier 1) | 2 | 0.306 | inactive
SCNM1 (sodium channel modifier 1) | 3 | -0.489 | inactive
MICAL2 | 1 | -0.4 | inactive
MICAL2 | 2 | -0.259 | inactive
MICAL2 | 3 | 0.249 | inactive
MICAL2 | 4 | -0.402 | inactive
MICAL2 | 5 | 0.663 | inactive
MICAL2 | 6 | 4.45 | active
IRX5 (iroquois homeobox 5) | 1 | 2.01 | inactive
IRX5 (iroquois homeobox 5) | 2 | -0.199 | inactive
IRX5 (iroquois homeobox 5) | 3 | -0.597 | inactive
PITPNM2 (phosphatidylinositol transfer protein membrane associated 2) | 1 | 0.0463 | inactive
PITPNM2 (phosphatidylinositol transfer protein membrane associated 2) | 2 | -2.16 | inactive
PITPNM2 (phosphatidylinositol transfer protein membrane associated 2) | 3 | 0.794 | inactive
AGAP1 (ArfGAP with GTPase domain, ankyrin repeat and PH domain 1) | 1 | 0.565 | inactive
AGAP1 (ArfGAP with GTPase domain, ankyrin repeat and PH domain 1) | 2 | 0.476 | inactive
AGAP1 (ArfGAP with GTPase domain, ankyrin repeat and PH domain 1) | 3 | 0.893 | inactive

In a second layout: entries from further up.
MICAL2 #3: total luciferase, z-score = 0.249; call = inactive
MICAL2 #4: total luciferase, z-score = -0.402; call = inactive
MICAL2 #5: total luciferase, z-score = 0.663; call = inactive
MICAL2 #6: total luciferase, z-score = 4.45; call = active

The list goes on:
Gene | siRNA no. | total luciferase, z-score | call
APBB1IP | 1 | -1.56 | inactive
APBB1IP | 2 | 0.352 | inactive
APBB1IP | 3 | 2.99 | inactive
ATXN7L2 (ataxin 7 like 2) | 1 | 0.199 | inactive
ATXN7L2 (ataxin 7 like 2) | 2 | -1.07 | inactive
ATXN7L2 (ataxin 7 like 2) | 3 | 1.65 | inactive
ZNF222 (zinc finger protein 222) | 1 | 1.23 | inactive
ZNF222 (zinc finger protein 222) | 2 | -0.418 | inactive
ZNF222 (zinc finger protein 222) | 3 | 0.58 | inactive
PIGB (phosphatidylinositol glycan anchor biosynthesis class B) | 1 | -0.562 | inactive
PIGB (phosphatidylinositol glycan anchor biosynthesis class B) | 2 | 0.433 | inactive
PIGB (phosphatidylinositol glycan anchor biosynthesis class B) | 3 | -0.474 | inactive
METTL16 (methyltransferase 16, RNA N6-adenosine) | 1 | 1.24 | inactive
METTL16 (methyltransferase 16, RNA N6-adenosine) | 2 | -0.234 | inactive
METTL16 (methyltransferase 16, RNA N6-adenosine) | 3 | 1.22 | inactive
HNRNPM (heterogeneous nuclear ribonucleoprotein M) | 1 | 1.67 | inactive
HNRNPM (heterogeneous nuclear ribonucleoprotein M) | 2 | -0.175 | inactive
HNRNPM (heterogeneous nuclear ribonucleoprotein M) | 3 | -0.84 | inactive
